These are yes or no findings as the source states them, for the method shown. In cells and extracts the contact can be indirect. Some entries that bind do so weakly or less than the wild type.
Target: Estrogen receptor α (ERα) (human (endogenous in MCF-7)) (UniProt P03372)
Experiment: co-IP; endogenous proteins; MCF-7 total cell lysate pre-cleared with Protein A + G Agarose and rabbit IgG, immunoprecipitated with anti-ERα (D8H8) 4 h at 4 °C, blotted with anti-RNF2; rabbit IgG as negative control; also in cells treated with vehicle or 10 nM E2

The chains behind the UniProt entries cited, without tags or fusion partners.
UniProt P03372: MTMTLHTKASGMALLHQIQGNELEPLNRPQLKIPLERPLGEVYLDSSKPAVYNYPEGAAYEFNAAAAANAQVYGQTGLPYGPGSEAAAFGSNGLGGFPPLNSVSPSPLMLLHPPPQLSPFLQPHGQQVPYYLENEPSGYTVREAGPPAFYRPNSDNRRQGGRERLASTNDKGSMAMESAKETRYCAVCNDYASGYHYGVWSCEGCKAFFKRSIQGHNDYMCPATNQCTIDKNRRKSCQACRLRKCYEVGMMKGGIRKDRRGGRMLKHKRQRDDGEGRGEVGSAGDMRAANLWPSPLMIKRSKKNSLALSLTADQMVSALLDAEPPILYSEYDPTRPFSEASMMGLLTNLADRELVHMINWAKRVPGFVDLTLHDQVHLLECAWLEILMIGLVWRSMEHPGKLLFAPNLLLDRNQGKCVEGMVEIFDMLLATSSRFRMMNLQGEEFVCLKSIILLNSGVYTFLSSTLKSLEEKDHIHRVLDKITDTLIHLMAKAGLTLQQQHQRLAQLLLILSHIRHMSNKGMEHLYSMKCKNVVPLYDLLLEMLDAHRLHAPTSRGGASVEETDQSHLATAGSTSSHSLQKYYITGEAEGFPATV
UniProt Q99496: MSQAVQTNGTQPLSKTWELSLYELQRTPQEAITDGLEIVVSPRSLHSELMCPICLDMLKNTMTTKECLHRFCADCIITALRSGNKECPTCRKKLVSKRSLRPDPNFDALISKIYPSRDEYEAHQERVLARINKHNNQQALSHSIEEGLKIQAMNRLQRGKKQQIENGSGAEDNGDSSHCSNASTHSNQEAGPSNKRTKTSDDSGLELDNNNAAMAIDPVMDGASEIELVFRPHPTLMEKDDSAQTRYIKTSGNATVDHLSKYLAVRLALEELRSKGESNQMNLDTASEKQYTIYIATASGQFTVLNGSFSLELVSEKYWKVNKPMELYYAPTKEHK

binding: binds
Substance: RING finger protein 2 (RNF2) (from UniProt Q99496 1-336)

From publication PMC9813066
